Experiment in all cases: EMSA
Background: In EMSA bound probe runs differently from free probe, usually more slowly.

The target of series [1] is T1, DVU3305 response regulator (Desulfovibrio vulgaris Hildenborough) (UniProt Q725X0).
T1 sequence (looked up, limits assumed): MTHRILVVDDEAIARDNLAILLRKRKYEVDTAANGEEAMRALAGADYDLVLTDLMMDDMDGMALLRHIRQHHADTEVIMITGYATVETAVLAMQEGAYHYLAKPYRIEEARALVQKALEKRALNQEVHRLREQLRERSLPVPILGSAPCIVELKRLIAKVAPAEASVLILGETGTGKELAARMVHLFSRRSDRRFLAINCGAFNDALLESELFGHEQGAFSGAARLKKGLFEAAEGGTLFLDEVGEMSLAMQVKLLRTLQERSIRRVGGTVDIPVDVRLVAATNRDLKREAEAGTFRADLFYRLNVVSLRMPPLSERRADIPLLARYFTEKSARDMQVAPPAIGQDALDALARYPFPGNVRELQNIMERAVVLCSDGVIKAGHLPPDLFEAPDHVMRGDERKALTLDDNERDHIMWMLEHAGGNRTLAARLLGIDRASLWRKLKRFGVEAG
Particulars: 10 mM Tris-HCl pH 7.5, 1 mM DTT, 50 mM KCl, 5 mM MgCl2, 25% glycerol, 1 ug/ml poly dI-dC, 50-100 fmol biotinylated DNA, 25-30 C, 20 min; recombinant protein; protein details: C-terminal V5-6xHis; label: 5'-biotin top strand.

The target of series [2] is T2, DVU0539 response regulator (Desulfovibrio vulgaris Hildenborough) (UniProt Q72EN8).
T2 sequence (looked up, limits assumed): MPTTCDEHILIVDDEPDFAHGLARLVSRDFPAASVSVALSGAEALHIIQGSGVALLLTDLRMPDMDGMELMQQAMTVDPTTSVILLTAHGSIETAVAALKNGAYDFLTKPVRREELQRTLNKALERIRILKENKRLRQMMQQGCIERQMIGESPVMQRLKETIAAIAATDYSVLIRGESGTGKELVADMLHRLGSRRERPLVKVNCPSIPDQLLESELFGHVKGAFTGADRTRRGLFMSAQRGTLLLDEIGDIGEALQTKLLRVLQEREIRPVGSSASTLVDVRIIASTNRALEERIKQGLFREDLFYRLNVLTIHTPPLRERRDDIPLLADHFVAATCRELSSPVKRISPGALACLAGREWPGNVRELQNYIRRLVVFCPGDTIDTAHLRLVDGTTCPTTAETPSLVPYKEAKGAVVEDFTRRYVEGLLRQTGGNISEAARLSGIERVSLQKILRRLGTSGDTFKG
Conditions: 10 mM Tris-HCl pH 7.5, 1 mM DTT, 50 mM KCl, 5 mM MgCl2, 25% glycerol, 1 ug/ml poly dI-dC, 50-100 fmol biotinylated DNA, 25-30 C, 20 min; recombinant protein; protein details: C-terminal V5-6xHis; label: 5'-biotin top strand.

Series [3] has as its target T3, DVU0946 response regulator (Desulfovibrio vulgaris Hildenborough) (UniProt Q72DI3).
T3 sequence (looked up, limits assumed): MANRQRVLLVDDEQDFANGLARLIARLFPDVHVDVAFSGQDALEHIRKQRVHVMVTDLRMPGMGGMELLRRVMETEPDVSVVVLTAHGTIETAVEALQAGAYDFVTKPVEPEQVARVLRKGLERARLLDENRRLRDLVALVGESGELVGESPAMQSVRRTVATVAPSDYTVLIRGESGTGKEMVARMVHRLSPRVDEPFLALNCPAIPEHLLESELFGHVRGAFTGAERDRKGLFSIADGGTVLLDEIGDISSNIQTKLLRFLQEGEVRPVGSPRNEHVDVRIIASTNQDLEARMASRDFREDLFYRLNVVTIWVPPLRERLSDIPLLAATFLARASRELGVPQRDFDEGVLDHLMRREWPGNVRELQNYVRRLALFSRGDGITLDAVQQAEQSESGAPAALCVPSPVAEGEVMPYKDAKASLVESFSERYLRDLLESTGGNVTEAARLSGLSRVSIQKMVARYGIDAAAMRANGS
Particulars: 10 mM Tris-HCl pH 7.5, 1 mM DTT, 50 mM KCl, 5 mM MgCl2, 25% glycerol, 1 ug/ml poly dI-dC, 50-100 fmol biotinylated DNA, 25-30 C, 20 min; recombinant protein; protein details: C-terminal V5-6xHis; label: 5'-biotin top strand.

For series [4], the target named is T4, DVU0621 response regulator (Desulfovibrio vulgaris Hildenborough) (UniProt Q72EF7).
T4 sequence (looked up, limits assumed): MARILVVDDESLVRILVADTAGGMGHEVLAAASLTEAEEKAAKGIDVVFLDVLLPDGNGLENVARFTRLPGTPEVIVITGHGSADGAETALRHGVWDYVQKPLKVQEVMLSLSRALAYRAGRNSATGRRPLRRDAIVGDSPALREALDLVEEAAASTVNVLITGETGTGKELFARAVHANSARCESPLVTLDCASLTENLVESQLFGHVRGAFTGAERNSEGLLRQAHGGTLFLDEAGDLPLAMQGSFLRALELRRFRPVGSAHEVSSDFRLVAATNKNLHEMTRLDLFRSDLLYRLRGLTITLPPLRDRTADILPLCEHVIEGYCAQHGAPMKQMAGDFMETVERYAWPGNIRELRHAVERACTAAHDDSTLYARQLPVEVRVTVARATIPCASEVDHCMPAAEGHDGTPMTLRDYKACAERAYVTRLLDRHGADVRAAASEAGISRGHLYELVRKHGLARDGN
Conditions: 10 mM Tris-HCl pH 7.5, 1 mM DTT, 50 mM KCl, 5 mM MgCl2, 25% glycerol, 1 ug/ml poly dI-dC, 50-100 fmol biotinylated DNA, 25-30 C, 20 min; recombinant protein; protein details: C-terminal V5-6xHis; label: 5'-biotin top strand; letters put together from the description.

Series [5] has as its target T5, DVU3381 response regulator (Desulfovibrio vulgaris Hildenborough) (UniProt Q725P3).
T5 sequence (looked up, limits assumed): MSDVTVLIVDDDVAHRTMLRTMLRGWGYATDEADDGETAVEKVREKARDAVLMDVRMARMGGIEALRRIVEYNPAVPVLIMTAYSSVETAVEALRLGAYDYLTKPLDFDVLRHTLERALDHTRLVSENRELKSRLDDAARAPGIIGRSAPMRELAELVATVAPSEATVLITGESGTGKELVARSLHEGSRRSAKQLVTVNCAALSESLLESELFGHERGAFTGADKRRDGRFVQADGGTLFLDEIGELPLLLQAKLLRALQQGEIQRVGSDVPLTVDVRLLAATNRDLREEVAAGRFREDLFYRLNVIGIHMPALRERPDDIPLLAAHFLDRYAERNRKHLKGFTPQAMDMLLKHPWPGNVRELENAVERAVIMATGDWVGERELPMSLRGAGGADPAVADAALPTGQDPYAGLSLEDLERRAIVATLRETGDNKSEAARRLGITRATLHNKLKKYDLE
Particulars: 10 mM Tris-HCl pH 7.5, 1 mM DTT, 50 mM KCl, 5 mM MgCl2, 25% glycerol, 1 ug/ml poly dI-dC, 50-100 fmol biotinylated DNA, 25-30 C, 20 min; recombinant protein; protein details: C-terminal V5-6xHis; label: 5'-biotin top strand.

Series [6] addresses T6, DVU2588 response regulator (Desulfovibrio vulgaris Hildenborough) (UniProt Q728L5).
T6 sequence (looked up): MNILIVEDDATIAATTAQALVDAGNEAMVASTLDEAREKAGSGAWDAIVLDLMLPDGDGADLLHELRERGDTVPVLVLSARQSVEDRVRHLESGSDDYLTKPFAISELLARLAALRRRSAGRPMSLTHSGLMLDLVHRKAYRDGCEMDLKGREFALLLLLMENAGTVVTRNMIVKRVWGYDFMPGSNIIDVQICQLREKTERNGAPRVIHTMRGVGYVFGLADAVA
Conditions: 10 mM Tris-HCl pH 7.5, 1 mM DTT, 50 mM KCl, 5 mM MgCl2, 25% glycerol, 1 ug/ml poly dI-dC, 50-100 fmol biotinylated DNA, 25-30 C, 20 min; recombinant protein; residues 1-226; protein details: C-terminal V5-6xHis; label: 5'-biotin top strand.

In series [7] the target is T7, DVU2934 response regulator (Desulfovibrio vulgaris Hildenborough) (UniProt Q727C1).
T7 sequence (looked up, limits assumed): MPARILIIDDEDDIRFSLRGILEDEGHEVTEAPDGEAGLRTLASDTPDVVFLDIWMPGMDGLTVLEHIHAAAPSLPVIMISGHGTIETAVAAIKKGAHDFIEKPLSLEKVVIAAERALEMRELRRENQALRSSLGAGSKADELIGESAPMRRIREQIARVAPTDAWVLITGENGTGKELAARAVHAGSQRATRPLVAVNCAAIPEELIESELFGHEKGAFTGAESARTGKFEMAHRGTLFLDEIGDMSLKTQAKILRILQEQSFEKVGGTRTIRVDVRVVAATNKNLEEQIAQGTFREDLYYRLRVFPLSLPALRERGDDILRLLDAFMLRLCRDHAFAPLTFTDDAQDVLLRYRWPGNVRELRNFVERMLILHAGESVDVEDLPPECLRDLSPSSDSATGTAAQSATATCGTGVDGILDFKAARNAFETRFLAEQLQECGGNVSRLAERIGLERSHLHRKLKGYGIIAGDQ
Conditions: 10 mM Tris-HCl pH 7.5, 1 mM DTT, 50 mM KCl, 5 mM MgCl2, 25% glycerol, 1 ug/ml poly dI-dC, 50-100 fmol biotinylated DNA, 25-30 C, 20 min; recombinant protein; protein details: C-terminal V5-6xHis; label: 5'-biotin top strand.

In series [8] the target is T8, DVU3023 response regulator (Desulfovibrio vulgaris Hildenborough) (UniProt Q726T3).
T8 sequence (looked up, limits assumed): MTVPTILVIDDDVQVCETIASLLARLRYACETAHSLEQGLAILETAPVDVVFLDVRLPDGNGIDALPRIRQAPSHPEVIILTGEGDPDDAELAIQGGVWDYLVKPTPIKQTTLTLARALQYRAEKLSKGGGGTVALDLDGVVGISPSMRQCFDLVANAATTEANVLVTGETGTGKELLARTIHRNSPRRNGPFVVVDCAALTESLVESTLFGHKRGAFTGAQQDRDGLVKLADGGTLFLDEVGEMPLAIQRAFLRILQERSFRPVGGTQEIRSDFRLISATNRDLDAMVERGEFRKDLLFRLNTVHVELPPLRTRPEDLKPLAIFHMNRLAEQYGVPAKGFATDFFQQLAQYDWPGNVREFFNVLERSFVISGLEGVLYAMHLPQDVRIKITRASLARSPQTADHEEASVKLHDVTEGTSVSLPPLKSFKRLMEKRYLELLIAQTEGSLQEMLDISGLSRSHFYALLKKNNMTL
Conditions: 10 mM Tris-HCl pH 7.5, 1 mM DTT, 50 mM KCl, 5 mM MgCl2, 25% glycerol, 1 ug/ml poly dI-dC, 50-100 fmol biotinylated DNA, 25-30 C, 20 min; recombinant protein; protein details: C-terminal V5-6xHis; label: 5'-biotin top strand.

In series [9] the target is T9, DVU1083 response regulator (PhoB) (Desulfovibrio vulgaris Hildenborough) (UniProt Q72D47).
T9 sequence (looked up, limits assumed): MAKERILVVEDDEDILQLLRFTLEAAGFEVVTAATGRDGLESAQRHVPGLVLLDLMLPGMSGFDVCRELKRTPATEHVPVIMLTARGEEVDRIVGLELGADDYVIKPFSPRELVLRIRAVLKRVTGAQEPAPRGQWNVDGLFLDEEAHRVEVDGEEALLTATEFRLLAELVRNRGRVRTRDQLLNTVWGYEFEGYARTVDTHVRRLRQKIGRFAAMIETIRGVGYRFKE
Conditions: 10 mM Tris-HCl pH 7.5, 1 mM DTT, 50 mM KCl, 5 mM MgCl2, 25% glycerol, 1 ug/ml poly dI-dC, 50-100 fmol biotinylated DNA, 25-30 C, 20 min; recombinant protein; protein details: C-terminal V5-6xHis; label: 5'-biotin top strand.

In series [10] the target is T10, DVU2394 response regulator (Desulfovibrio vulgaris Hildenborough) (UniProt Q729F7).
T10 sequence (looked up, limits assumed): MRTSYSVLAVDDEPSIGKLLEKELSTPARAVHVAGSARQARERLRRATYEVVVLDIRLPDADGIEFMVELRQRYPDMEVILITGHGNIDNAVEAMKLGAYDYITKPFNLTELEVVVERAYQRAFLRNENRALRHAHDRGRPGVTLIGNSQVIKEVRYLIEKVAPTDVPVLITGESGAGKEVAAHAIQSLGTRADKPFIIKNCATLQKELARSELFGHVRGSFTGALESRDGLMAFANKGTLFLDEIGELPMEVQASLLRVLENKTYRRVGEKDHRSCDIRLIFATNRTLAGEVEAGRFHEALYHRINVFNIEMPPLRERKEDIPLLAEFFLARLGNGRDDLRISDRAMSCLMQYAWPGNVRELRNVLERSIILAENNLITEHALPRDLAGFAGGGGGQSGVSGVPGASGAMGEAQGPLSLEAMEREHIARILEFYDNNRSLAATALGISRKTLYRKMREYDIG
Conditions: 10 mM Tris-HCl pH 7.5, 1 mM DTT, 50 mM KCl, 5 mM MgCl2, 25% glycerol, 1 ug/ml poly dI-dC, 50-100 fmol biotinylated DNA, 25-30 C, 20 min; recombinant protein; protein details: C-terminal V5-6xHis; label: 5'-biotin top strand.

Protein sequences can lack the tags named with them. For some assays here: For at least one entry, the source does not settle the construct or the ends of the probe.

For “AAAGCCTCGTGTTGCGATATGCAACACGAGGCCAC (double strand) [DVU3303 motif wt]”, in series [1], the binding result is recorded as “binds”.

“AAAGGGCGCTAACACAGGTTTACGATGCAAA (double strand) [DVU0943 motif wt]”: the binding result in series [2] and in series [3] was “binds” throughout.

For “ACGGTGTCGTCATCTTTTTCTGTCACCTGTCATCTTTTTCTGACTCCTGCAAGG (double strand) [DVU0624 upstream binding-site substrate (54 bp)]”, the binding result in series [4] was “binds”.

Take “CACGAATGGAGTATATTTTTTATACACCCATACAC (double strand) [DVU3384 motif wt]”: in [5], the binding result was “binds”.

As to “CGTCCTGCACATTAACATTCTTTAATTAAAAGCTGT (double strand) [DVU0943 DVU2588-motif wt]”, the binding result in [6] is on record as “binds”.

With “CTCGCCATGTGGTGTGCAGAACACACACTGTGCGTGG (double strand) [DVU2917 motif wt]”, the binding result in [7] was “binds”.

Regarding “CTCGCGTTGTGGTGTGGATAACACACAGTGTGCGTGG (double strand) [DVU2917 motif, bases outside palindrome changed]”, in [7], the binding result is recorded as “binds”.

On to “GCCACACGAAGTCCGCTTTTCAAGACACGCTACCAC (double strand) [DVU3025 motif wt]”, for which, in series [8], the binding result is “binds”.

Regarding “GTTGTAAAATGTCACACGGTTGTAACCGCTCTTCCA (double strand) [DVU1083 motif wt]”, the binding result in series [9] is listed as “binds”.

“TCCAGCCATCTATGTTTTTTCTGGCATATGTGGCATTTCGACCCAA (double strand) [DVU2405 motif wt]”: in [10], the binding result is “binds”.

The record behind these values is PMC3333781, “Systematic mapping of two component response regulators to gene targets in a model sulfate reducing bacterium”.
